# Measurements taken from paper PMC7564595.
# The chains behind the UniProt entries cited, without tags or fusion partners.
# UniProt Q96CW5: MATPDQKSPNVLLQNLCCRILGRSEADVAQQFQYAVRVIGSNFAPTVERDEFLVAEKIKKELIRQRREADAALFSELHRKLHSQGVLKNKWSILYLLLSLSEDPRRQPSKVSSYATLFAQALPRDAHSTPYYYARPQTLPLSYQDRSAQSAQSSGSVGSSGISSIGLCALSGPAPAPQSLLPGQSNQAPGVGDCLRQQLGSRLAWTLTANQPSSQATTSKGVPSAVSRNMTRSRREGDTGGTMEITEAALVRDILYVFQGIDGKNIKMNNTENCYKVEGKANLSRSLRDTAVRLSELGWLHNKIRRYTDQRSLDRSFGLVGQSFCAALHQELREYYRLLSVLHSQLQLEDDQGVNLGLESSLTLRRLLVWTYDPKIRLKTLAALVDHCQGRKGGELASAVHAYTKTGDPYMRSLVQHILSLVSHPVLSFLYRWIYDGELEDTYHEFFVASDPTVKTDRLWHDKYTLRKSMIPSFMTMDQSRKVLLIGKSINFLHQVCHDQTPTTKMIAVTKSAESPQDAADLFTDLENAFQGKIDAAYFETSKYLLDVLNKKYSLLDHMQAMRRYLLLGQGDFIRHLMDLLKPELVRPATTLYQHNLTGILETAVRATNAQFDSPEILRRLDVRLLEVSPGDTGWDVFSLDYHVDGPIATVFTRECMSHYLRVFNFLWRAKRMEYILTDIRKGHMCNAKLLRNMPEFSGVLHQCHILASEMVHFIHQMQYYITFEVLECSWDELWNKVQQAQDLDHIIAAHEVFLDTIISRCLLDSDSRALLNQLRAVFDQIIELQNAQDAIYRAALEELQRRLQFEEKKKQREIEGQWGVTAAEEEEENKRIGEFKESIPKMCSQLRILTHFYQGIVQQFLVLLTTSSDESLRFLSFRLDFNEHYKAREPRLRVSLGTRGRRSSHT
# UniProt Q9BSJ2: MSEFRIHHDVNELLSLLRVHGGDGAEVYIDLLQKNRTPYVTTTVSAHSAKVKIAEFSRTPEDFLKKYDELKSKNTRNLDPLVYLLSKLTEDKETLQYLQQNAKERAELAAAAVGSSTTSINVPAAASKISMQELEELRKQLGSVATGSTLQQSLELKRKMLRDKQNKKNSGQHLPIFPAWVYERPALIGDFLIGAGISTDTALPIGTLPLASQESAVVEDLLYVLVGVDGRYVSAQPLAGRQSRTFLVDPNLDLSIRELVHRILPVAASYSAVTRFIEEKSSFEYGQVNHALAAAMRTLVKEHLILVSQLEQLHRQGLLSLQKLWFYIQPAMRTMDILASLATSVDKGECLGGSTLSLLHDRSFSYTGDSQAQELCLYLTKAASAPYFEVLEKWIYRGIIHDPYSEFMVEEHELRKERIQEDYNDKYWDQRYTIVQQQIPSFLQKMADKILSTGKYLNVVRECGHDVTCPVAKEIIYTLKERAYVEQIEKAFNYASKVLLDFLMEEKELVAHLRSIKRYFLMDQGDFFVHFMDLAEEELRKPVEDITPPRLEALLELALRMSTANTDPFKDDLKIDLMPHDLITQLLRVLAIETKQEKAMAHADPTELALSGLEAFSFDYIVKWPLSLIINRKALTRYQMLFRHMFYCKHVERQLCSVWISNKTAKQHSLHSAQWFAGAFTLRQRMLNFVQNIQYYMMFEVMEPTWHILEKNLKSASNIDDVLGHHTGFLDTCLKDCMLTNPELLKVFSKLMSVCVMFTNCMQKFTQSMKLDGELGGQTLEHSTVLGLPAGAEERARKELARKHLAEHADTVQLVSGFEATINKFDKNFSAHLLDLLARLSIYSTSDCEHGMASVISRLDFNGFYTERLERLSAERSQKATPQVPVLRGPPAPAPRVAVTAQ
# UniProt Q9UBN7: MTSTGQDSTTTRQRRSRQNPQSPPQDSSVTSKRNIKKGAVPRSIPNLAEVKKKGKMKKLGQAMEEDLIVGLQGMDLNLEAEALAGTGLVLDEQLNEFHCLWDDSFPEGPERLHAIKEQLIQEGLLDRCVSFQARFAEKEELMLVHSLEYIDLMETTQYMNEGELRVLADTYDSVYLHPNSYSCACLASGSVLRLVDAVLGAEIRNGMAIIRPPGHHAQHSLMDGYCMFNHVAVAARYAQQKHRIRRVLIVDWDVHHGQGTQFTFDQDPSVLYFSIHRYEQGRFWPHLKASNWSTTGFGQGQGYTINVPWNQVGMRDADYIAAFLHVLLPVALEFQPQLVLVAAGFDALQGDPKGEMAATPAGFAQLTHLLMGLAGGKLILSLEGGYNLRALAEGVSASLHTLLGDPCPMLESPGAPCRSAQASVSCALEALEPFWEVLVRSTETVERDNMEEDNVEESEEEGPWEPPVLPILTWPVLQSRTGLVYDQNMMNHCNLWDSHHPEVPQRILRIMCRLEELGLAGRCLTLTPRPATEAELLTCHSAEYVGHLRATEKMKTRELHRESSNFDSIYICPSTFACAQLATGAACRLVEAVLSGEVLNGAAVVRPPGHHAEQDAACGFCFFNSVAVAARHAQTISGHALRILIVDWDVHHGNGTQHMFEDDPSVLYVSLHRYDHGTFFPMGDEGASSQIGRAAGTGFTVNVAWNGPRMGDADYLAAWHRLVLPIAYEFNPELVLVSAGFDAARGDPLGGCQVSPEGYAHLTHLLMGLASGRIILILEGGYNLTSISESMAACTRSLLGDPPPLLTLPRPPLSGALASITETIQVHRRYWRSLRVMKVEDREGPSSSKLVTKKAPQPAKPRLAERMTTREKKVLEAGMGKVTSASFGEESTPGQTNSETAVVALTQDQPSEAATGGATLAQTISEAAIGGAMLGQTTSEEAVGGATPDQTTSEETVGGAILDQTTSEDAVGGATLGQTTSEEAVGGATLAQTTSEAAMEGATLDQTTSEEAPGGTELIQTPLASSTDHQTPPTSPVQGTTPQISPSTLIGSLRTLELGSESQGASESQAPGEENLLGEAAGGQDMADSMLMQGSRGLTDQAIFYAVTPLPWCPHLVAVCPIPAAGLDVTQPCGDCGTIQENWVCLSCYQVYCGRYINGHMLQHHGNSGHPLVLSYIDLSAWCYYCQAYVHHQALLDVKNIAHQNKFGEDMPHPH
# No constants are given. Whether binding was seen depends on the method and setting. In cells and extracts the contact can be indirect. Some binding calls cover weakened binding; strength is not graded here. Sequences can lack the tags named with a protein.
# Biological target: T1, SIRT4-eGFP (human) (UniProt Q9Y6E7)
# T1 sequence: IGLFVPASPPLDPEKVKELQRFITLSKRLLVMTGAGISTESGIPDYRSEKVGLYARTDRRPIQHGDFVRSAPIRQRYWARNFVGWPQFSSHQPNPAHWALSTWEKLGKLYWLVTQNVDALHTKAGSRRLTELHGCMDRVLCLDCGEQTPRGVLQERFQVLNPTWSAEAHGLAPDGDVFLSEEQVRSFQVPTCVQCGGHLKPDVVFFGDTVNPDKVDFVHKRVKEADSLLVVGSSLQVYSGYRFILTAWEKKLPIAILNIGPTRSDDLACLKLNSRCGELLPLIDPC
# Assay: co-IP; anti-eGFP nanobody co-immunoprecipitation from total cell lysates (0.3% CHAPS lysis buffer) of mitotically synchronized HEK293 cells expressing SIRT4-eGFP or eGFP; immunoblot
row,binding,Substance
1,binds,Tubulin Gamma Complex Associated Protein 3 (from UniProt Q96CW5 1-907)
2,binds,TUBGCP2 (from UniProt Q9BSJ2 1-902)
3,binds,histone deacetylase 6 (from UniProt Q9UBN7 1-1215) (enzyme)
